# Experimental data from the supplement of paper PMC8728848.
# The other results are listed elsewhere or left out.
# How the values were obtained:
# Assay in all cases: glycan array binding signal (z-score within array); higher = stronger binding
# Details in all cases: glycan notation: IUPAC condensed, linker removed
# [1] = target: Neu5Ac(a2-3)Gal(b1-4)GlcNAc(b1-2)[Neu5Ac(a2-3)Gal(b1-4)GlcNAc(b1-4)]Man(a1-3)[GlcNAc(b1-4)][Neu5Ac(a2-3)Gal(b1-4)GlcNAc(b1-2)[Neu5Ac(a2-3)Gal(b1-4)GlcNAc(b1-6)]Man(a1-6)]Man(b1-4)GlcNAc(b1-4)GlcNAc
# How it was run: (§1)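 The binding signal is a Z-score computed within each array and averaged over linkers. Arrays of the same protein sequence at different concentrations or buffers were also averaged together. Data originate from 3228 arrays in the Consortium for Functional Glycomics database, kept only where the protein sequence was available.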
# [2] = target: Neu5Ac(a2-3)Gal(b1-4)GlcNAc(b1-2)[Neu5Ac(a2-3)Gal(b1-4)GlcNAc(b1-4)]Man(a1-3)[GlcNAc(b1-4)][Neu5Ac(a2-3)Gal(b1-4)GlcNAc(b1-4)Man(a1-6)]Man(b1-4)GlcNAc(b1-4)GlcNAc
# How it was run: as §1
# [3] = target: Neu5Ac(a2-3)Gal(b1-4)GlcNAc(b1-2)[Neu5Ac(a2-3)Gal(b1-4)GlcNAc(b1-6)]Man(a1-6)[Neu5Ac(a2-3)Gal(b1-4)GlcNAc(b1-2)Man(a1-3)][GlcNAc(b1-4)]Man(b1-4)GlcNAc(b1-4)GlcNAc
# How it was run: as §1
# [4] = target: Neu5Ac(a2-3)Gal(b1-4)GlcNAc(b1-3)Gal
# How it was run: as §1
# [5] = target: Neu5Ac(a2-3)Gal(b1-4)GlcNAc(b1-3)Gal(b1-3)GlcNAc
# How it was run: as §1
# [6] = target: Neu5Ac(a2-3)Gal(b1-4)GlcNAc(b1-3)Gal(b1-4)GlcNAc
# How it was run: as §1
# [7] = target: Neu5Ac(a2-3)Gal(b1-4)GlcNAc(b1-3)Gal(b1-4)GlcNAc(b1-2)Man(a1-3)[Neu5Ac(a2-3)Gal(b1-4)GlcNAc(b1-3)Gal(b1-4)GlcNAc(b1-2)Man(a1-6)]Man(b1-4)GlcNAc(b1-4)GlcNAc
# How it was run: as §1
# [8] = target: Neu5Ac(a2-3)Gal(b1-4)GlcNAc(b1-3)Gal(b1-4)GlcNAc(b1-3)Gal(b1-4)GlcNAc
# How it was run: as §1
# [9] = target: Neu5Ac(a2-3)Gal(b1-4)GlcNAc(b1-3)Gal(b1-4)GlcNAc(b1-3)Gal(b1-4)GlcNAc(b1-2)Man(a1-3)[Neu5Ac(a2-3)Gal(b1-4)GlcNAc(b1-3)Gal(b1-4)GlcNAc(b1-3)Gal(b1-4)GlcNAc(b1-2)Man(a1-6)]GalNAc
# How it was run: as §1
# [10] = target: Neu5Ac(a2-3)Gal(b1-4)GlcNAc(b1-3)Gal(b1-4)GlcNAc(b1-3)GalNAc
# How it was run: as §1
# [11] = target: Neu5Ac(a2-3)Gal(b1-4)GlcNAc(b1-3)Gal(b1-4)GlcNAc(b1-3)[Neu5Ac(a2-3)Gal(b1-4)GlcNAc(b1-3)Gal(b1-4)GlcNAc(b1-6)]GalNAc
# How it was run: as §1
# [12] = target: Neu5Ac(a2-3)Gal(b1-4)GlcNAc(b1-3)Gal(b1-4)GlcNAc(b1-6)[Gal(b1-3)]GalNAc
# How it was run: as §1
# [13] = target: Neu5Ac(a2-3)Gal(b1-4)GlcNAc(b1-3)Gal(b1-4)[Fuc(a1-3)]GlcNAc
# How it was run: as §1
# [14] = target: Neu5Ac(a2-3)Gal(b1-4)GlcNAc(b1-3)GalNAc
# How it was run: as §1
# [15] = target: Neu5Ac(a2-3)Gal(b1-4)GlcNAc(b1-3)[Neu5Ac(a2-3)Gal(b1-4)GlcNAc(b1-6)]GalNAc
# How it was run: as §1
# [16] = target: Neu5Ac(a2-3)Gal(b1-4)GlcNAc(b1-6)GalNAc
# How it was run: as §1
# [17] = target: Neu5Ac(a2-3)Gal(b1-4)GlcNAc(b1-6)[Gal(b1-3)]GalNAc
# How it was run: as §1
# [18] = target: Neu5Ac(a2-3)Gal(b1-4)GlcNAc(b1-6)[Neu5Ac(a2-3)Gal(b1-3)]GalNAc
# How it was run: as §1
# [19] = target: Neu5Ac(a2-3)Gal(b1-4)GlcNAc6S
# How it was run: as §1
# [20] = target: Neu5Ac(a2-3)Gal(b1-4)[Fuc(a1-3)]GlcNAc
# How it was run: as §1
# [21] = target: Neu5Ac(a2-3)Gal(b1-4)[Fuc(a1-3)]GlcNAc(b1-2)Man
# How it was run: as §1
# [22] = target: Neu5Ac(a2-3)Gal(b1-4)[Fuc(a1-3)]GlcNAc(b1-3)Gal
# How it was run: as §1
# [23] = target: Neu5Ac(a2-3)Gal(b1-4)[Fuc(a1-3)]GlcNAc(b1-3)Gal(b1-4)GlcNAc
# How it was run: as §1
# [24] = target: Neu5Ac(a2-3)Gal(b1-4)[Fuc(a1-3)]GlcNAc(b1-3)Gal(b1-4)[Fuc(a1-3)]GlcNAc(b1-3)Gal(b1-4)[Fuc(a1-3)]GlcNAc
# How it was run: as §1
# [25] = target: Neu5Ac(a2-3)Gal(b1-4)[Fuc(a1-3)]GlcNAc(b1-3)GalNAc
# How it was run: as §1
# [26] = target: Neu5Ac(a2-3)Gal(b1-4)[Fuc(a1-3)]GlcNAc(b1-6)[Gal(b1-3)]GalNAc
# How it was run: as §1
# [27] = target: Neu5Ac(a2-3)Gal(b1-4)[Fuc(a1-3)]GlcNAc(b1-6)[Neu5Ac(a2-3)Gal(b1-3)]GalNAc
# How it was run: as §1
# [28] = target: Neu5Ac(a2-3)Gal(b1-4)[Fuc(a1-3)]GlcNAc6S
# How it was run: as §1
# [29] = target: Neu5Ac(a2-3)Gal6S(b1-4)GlcNAc
# How it was run: as §1
# [30] = target: Neu5Ac(a2-3)Gal6S(b1-4)[Fuc(a1-3)]GlcNAc
# How it was run: as §1
# Neu5Ac(a2-3)GalNAc = target: Neu5Ac(a2-3)GalNAc
# How it was run: as §1
# [31] = target: Neu5Ac(a2-3)GalNAc(b1-4)GlcNAc
# How it was run: as §1
# [32] = target: Neu5Ac(a2-3)[GalNAc(b1-4)]Gal(b1-4)Glc
# How it was run: as §1
# [33] = target: Neu5Ac(a2-3)[GalNAc(b1-4)]Gal(b1-4)GlcNAc
# How it was run: as §1
# [34] = target: Neu5Ac(a2-3)[GalNAc(b1-4)]Gal(b1-4)GlcNAc(b1-3)GalNAc
# How it was run: as §1
# [35] = target: Neu5Ac(a2-3)[Neu5Ac(a2-6)]GalNAc
# How it was run: as §1
# Neu5Ac(a2-6)Gal = target: Neu5Ac(a2-6)Gal
# How it was run: as §1
# [36] = target: Neu5Ac(a2-6)Gal(b1-3)GlcNAc(b1-3)[Gal(b1-4)GlcNAc(b1-6)]Gal(b1-4)Glc
# How it was run: as §1
# Neu5Ac(a2-6)Gal(b1-4)Glc = target: Neu5Ac(a2-6)Gal(b1-4)Glc
# How it was run: as §1
# [37] = target: Neu5Ac(a2-6)Gal(b1-4)GlcNAc
# How it was run: as §1
# [38] = target: Neu5Ac(a2-6)Gal(b1-4)GlcNAc(b1-2)Man
# How it was run: as §1
# [39] = target: Neu5Ac(a2-6)Gal(b1-4)GlcNAc(b1-2)Man(a1-3)Man(b1-4)GlcNAc(b1-4)GlcNAc
# How it was run: as §1
# [40] = target: Neu5Ac(a2-6)Gal(b1-4)GlcNAc(b1-2)Man(a1-3)[Gal(b1-4)GlcNAc(b1-2)Man(a1-6)]Man(b1-4)GlcNAc(b1-4)GlcNAc
# How it was run: as §1
# [41] = target: Neu5Ac(a2-6)Gal(b1-4)GlcNAc(b1-2)Man(a1-3)[GlcNAc(b1-2)Man(a1-6)]Man(b1-4)GlcNAc(b1-4)GlcNAc
# How it was run: as §1
# [42] = target: Neu5Ac(a2-6)Gal(b1-4)GlcNAc(b1-2)Man(a1-3)[GlcNAc(b1-4)][Neu5Ac(a2-6)Gal(b1-4)GlcNAc(b1-2)Man(a1-6)]Man(b1-4)GlcNAc(b1-4)GlcNAc
# How it was run: as §1
binder,measurement,setting,value
Mincle (Bos taurus) (protein) MNSSTSPASQTERRCFSFQLFSWAIAGTSILLLSACFITRCVVTYSIFQLCDEKKFQPPGDSMELSCYNDGSGSVKNCCPLKWFHFQSSCYLFSPDTMSWRASLKNCSSMGAHLVVINTQEEQEFLYYTKPRKKEFYIGLTDQVTEGQWQWVDGTPFTKSLSFWDAGEPNNLVIVEDCATIRDSSNPRQNWNDVPCFFNMFRVCEMPERKI,glycan array binding signal (z-score),[1],-0.287
same,glycan array binding signal (z-score),[2],-0.527
same,glycan array binding signal (z-score),[3],-0.652
same,glycan array binding signal (z-score),[4],-0.264
same,glycan array binding signal (z-score),[5],0.02
same,glycan array binding signal (z-score),[6],-0.283
same,glycan array binding signal (z-score),[7],1.14
same,glycan array binding signal (z-score),[8],-1.07
same,glycan array binding signal (z-score),[9],4.3
same,glycan array binding signal (z-score),[10],-0.263
same,glycan array binding signal (z-score),[11],-0.078
same,glycan array binding signal (z-score),[12],-0.21
same,glycan array binding signal (z-score),[13],-0.67
same,glycan array binding signal (z-score),[14],-0.071
same,glycan array binding signal (z-score),[15],0.097
same,glycan array binding signal (z-score),[16],-1
same,glycan array binding signal (z-score),[17],-0.034
same,glycan array binding signal (z-score),[18],-0.537
same,glycan array binding signal (z-score),[19],-1.02
same,glycan array binding signal (z-score),[20],-0.612
same,glycan array binding signal (z-score),[21],-0.775
same,glycan array binding signal (z-score),[22],-0.328
same,glycan array binding signal (z-score),[23],0.264
same,glycan array binding signal (z-score),[24],-1.45
same,glycan array binding signal (z-score),[25],1.18
same,glycan array binding signal (z-score),[26],0.16
same,glycan array binding signal (z-score),[27],0.392
same,glycan array binding signal (z-score),[28],-0.654
same,glycan array binding signal (z-score),[29],-0.668
same,glycan array binding signal (z-score),[30],-1.05
same,glycan array binding signal (z-score),Neu5Ac(a2-3)GalNAc,-0.677
same,glycan array binding signal (z-score),[31],-0.33
same,glycan array binding signal (z-score),[32],-0.382
same,glycan array binding signal (z-score),[33],-0.65
same,glycan array binding signal (z-score),[34],1.35
same,glycan array binding signal (z-score),[35],-0.666
same,glycan array binding signal (z-score),Neu5Ac(a2-6)Gal,-0.231
same,glycan array binding signal (z-score),[36],-0.651
same,glycan array binding signal (z-score),Neu5Ac(a2-6)Gal(b1-4)Glc,-0.274
same,glycan array binding signal (z-score),[37],-0.729
same,glycan array binding signal (z-score),[38],0.078
same,glycan array binding signal (z-score),[39],-0.332
same,glycan array binding signal (z-score),[40],0.077
same,glycan array binding signal (z-score),[41],-0.237
same,glycan array binding signal (z-score),[42],-0.309

# Quoted at random: 2 records from the list.
binder,measurement,setting,value
Mincle (Bos taurus) (protein) MNSSTSPASQTERRCFSFQLFSWAIAGTSILLLSACFITRCVVTYSIFQLCDEKKFQPPGDSMELSCYNDGSGSVKNCCPLKWFHFQSSCYLFSPDTMSWRASLKNCSSMGAHLVVINTQEEQEFLYYTKPRKKEFYIGLTDQVTEGQWQWVDGTPFTKSLSFWDAGEPNNLVIVEDCATIRDSSNPRQNWNDVPCFFNMFRVCEMPERKI,glycan array binding signal (z-score),[39],-0.332
same,glycan array binding signal (z-score),[1],-0.287
